# Results: the supplement of paper PMC10849652
# Sequences of proteins named here, by UniProt entry; tags and fusion partners are left off. A change or cut given only in a name is not applied to a line headed by its entry.
# UniProt P49840: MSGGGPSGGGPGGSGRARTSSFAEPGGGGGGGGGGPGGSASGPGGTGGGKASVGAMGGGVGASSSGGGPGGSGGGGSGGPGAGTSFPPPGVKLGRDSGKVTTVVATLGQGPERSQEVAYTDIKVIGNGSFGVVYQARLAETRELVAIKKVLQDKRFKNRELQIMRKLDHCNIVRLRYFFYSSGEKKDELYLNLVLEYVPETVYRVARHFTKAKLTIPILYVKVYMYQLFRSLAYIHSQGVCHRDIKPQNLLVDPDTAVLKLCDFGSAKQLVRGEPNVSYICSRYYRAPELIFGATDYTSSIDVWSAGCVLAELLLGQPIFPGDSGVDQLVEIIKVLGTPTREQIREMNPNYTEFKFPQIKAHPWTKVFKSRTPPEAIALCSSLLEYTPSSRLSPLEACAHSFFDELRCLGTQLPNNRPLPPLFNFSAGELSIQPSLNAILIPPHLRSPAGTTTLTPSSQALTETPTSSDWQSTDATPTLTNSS
# UniProt P0C0S5, whole entry, looked up: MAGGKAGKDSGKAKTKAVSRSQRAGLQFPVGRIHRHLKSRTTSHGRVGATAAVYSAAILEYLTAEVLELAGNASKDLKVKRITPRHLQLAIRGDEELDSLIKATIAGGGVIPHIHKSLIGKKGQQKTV
# UniProt Q68CZ6: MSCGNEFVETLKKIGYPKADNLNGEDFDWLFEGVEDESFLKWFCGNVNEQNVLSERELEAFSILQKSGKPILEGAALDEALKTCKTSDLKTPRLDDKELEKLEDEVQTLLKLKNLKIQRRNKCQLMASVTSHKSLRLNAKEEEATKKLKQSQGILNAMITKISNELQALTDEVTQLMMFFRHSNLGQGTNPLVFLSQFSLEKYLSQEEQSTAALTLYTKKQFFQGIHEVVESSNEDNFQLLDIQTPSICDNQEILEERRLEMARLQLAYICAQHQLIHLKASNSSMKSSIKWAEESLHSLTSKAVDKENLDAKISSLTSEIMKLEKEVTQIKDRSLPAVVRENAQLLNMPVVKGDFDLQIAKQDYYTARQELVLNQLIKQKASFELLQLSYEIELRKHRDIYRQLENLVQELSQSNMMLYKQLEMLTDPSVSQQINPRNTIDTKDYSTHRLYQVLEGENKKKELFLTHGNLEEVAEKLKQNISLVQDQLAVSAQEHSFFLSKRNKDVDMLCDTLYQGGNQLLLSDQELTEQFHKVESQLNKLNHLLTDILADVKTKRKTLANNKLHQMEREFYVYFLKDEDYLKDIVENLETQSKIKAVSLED
# UniProt P69892: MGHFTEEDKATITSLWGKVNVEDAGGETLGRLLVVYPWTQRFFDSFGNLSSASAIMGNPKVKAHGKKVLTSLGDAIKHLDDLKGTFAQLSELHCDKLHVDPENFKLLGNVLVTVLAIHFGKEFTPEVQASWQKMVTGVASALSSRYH
# UniProt P28799: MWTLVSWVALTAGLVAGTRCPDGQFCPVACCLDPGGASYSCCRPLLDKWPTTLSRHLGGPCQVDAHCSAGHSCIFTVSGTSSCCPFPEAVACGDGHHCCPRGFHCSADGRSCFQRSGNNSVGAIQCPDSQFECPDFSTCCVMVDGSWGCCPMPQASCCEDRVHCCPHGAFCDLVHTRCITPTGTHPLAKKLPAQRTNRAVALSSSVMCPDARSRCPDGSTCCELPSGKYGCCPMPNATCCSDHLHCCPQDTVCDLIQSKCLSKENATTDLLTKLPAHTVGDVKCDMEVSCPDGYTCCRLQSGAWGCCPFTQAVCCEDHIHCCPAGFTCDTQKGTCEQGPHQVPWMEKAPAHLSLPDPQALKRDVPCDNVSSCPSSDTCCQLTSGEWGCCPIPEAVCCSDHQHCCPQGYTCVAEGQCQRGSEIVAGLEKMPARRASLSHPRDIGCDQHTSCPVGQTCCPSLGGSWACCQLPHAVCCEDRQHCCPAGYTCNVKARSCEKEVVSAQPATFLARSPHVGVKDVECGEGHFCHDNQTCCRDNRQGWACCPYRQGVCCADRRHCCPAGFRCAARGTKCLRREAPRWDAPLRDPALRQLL
# UniProt P51610: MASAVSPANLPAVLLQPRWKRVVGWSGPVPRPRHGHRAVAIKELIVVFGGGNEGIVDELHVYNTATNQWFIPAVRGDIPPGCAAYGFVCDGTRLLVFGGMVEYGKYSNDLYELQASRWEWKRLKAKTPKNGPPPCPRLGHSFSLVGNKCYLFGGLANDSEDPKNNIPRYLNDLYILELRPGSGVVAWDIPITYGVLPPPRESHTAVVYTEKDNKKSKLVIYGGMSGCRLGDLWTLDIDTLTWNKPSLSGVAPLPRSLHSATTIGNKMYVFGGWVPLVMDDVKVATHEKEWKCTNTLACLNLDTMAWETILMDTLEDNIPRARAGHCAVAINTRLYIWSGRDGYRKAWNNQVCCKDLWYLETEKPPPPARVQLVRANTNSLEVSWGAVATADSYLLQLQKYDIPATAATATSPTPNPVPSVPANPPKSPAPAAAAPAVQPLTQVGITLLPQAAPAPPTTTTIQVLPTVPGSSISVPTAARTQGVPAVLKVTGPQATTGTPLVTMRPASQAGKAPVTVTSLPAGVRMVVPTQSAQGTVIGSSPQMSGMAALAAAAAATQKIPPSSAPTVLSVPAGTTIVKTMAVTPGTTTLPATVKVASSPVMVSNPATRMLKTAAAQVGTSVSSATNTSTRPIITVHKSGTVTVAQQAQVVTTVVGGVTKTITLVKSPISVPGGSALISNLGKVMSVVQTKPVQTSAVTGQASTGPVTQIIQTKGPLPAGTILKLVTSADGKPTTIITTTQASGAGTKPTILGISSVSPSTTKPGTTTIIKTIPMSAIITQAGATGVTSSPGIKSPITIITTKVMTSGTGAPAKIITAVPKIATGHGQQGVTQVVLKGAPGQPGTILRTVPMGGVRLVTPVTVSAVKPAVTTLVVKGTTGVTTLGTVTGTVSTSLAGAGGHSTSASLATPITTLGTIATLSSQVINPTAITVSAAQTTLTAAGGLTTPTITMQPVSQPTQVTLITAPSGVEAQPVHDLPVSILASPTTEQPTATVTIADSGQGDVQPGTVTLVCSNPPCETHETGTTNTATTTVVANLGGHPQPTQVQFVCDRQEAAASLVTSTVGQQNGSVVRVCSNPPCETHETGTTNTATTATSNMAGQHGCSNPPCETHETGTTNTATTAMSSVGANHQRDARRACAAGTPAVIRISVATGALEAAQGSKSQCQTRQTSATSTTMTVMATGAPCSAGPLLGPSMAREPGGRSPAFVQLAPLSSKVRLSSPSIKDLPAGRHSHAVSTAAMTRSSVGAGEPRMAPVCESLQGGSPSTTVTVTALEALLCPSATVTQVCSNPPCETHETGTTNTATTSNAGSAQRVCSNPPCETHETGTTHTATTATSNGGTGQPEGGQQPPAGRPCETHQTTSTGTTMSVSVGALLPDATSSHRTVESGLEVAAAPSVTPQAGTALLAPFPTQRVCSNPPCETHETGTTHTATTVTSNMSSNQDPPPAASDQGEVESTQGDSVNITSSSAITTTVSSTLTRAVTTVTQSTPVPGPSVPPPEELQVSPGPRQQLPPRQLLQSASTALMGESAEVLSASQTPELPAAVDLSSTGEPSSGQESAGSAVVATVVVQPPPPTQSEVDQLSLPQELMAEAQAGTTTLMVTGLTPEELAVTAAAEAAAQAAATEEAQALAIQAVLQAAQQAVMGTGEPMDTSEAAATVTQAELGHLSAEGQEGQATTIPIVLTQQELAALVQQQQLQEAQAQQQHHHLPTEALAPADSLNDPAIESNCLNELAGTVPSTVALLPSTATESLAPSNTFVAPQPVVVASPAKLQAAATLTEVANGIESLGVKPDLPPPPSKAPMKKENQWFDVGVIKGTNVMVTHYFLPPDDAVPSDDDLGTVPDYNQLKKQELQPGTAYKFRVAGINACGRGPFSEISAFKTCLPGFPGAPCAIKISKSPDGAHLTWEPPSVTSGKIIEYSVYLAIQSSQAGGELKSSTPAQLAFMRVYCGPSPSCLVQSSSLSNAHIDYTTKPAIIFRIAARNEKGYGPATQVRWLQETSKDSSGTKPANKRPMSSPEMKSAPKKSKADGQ
# UniProt Q969S8: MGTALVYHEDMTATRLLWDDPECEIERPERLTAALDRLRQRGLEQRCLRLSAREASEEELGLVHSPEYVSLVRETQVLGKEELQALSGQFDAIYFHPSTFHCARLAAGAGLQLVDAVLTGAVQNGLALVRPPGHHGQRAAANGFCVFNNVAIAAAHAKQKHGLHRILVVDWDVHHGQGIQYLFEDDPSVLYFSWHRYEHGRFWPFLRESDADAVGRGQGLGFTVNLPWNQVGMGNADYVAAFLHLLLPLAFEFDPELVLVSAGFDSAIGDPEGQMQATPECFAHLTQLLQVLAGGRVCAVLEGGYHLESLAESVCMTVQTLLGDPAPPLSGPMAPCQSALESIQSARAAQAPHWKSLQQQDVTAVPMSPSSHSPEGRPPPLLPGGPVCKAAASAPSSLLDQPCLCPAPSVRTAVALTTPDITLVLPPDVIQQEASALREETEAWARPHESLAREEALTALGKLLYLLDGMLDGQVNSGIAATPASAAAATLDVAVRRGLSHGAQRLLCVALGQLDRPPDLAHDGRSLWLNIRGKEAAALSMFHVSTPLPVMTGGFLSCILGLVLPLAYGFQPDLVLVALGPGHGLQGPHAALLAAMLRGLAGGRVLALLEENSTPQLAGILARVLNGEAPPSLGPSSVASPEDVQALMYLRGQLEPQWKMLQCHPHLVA
# UniProt Q9H6D7: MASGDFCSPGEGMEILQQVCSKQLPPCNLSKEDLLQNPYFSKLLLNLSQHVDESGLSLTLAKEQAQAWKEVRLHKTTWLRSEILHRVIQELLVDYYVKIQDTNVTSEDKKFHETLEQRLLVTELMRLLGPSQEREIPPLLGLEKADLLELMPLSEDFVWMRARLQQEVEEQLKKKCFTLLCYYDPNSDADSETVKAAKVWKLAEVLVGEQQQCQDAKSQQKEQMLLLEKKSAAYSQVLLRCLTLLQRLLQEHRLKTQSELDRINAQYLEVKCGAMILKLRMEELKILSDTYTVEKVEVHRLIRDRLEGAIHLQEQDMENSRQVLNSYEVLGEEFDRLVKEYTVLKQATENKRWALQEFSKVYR
# UniProt Q6P1K8: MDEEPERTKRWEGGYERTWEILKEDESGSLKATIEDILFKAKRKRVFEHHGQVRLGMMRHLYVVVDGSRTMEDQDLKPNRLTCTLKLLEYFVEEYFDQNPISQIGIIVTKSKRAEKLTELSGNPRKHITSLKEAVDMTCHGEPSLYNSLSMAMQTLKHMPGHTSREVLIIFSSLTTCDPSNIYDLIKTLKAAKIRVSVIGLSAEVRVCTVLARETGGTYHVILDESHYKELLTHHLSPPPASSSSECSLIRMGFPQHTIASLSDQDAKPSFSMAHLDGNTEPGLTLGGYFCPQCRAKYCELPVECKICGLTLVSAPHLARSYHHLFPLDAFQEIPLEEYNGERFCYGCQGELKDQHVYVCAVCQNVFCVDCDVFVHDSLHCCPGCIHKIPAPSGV
# UniProt Q9BY41: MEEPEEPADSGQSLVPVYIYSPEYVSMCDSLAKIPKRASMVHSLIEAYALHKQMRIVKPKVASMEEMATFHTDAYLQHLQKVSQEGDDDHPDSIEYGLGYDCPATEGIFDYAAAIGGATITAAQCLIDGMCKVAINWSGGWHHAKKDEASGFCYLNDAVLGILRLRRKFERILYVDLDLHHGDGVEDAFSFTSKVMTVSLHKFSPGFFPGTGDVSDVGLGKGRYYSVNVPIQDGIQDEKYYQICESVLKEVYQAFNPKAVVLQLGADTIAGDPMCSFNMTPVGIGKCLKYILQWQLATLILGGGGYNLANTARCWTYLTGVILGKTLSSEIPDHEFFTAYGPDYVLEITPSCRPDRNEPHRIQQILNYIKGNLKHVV
# UniProt Q8TD30: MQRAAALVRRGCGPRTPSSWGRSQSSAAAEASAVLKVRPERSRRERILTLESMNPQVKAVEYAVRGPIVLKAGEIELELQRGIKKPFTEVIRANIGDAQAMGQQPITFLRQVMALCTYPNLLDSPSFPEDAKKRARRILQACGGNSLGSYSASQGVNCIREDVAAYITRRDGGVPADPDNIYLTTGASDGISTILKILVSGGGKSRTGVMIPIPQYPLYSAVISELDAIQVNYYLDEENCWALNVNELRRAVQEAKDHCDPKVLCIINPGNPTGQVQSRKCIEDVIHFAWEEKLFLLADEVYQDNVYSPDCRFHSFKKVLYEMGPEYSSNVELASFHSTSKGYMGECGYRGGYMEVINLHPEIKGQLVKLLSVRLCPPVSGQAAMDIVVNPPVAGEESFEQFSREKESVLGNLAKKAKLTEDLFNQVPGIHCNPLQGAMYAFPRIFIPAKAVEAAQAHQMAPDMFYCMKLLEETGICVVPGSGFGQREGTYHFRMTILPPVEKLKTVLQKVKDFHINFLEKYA
# UniProt P13984, whole entry, looked up: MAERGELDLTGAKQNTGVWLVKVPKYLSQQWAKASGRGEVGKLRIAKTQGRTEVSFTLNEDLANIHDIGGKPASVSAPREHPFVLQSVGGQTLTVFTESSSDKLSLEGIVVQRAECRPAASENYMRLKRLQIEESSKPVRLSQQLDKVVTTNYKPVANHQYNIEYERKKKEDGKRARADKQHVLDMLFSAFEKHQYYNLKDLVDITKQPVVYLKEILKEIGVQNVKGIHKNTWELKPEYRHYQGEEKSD
# The list shows a part of the results.
# Experiments:
# Experiment in all cases: log2 fold change, soluble protein after heating vs DMSO (PISA); higher = thermal stabilisation; K562 lysate, 10 uM; active = over 0.2 and 3.5 SD of the protein, either way, in both replicates (recomputed)
# [1] = compound: C1=CC=C(C=C1)[C@H](COC2=CC3=C(C=C2)NC(=O)N3)NC(=O)C4=CC=CN(C4=O)CC5=CC(=C(C=C5)F)F
# Summary of the method: (§1)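 Thermal stability, expressed as log-two fold change relative to solvent controls, is given from duplicates. Crude K562 extract in PBS pH 7.4 with 1 mM MgCl2, at 1 mg/mL protein, was treated with 10 μM compound for 30 min and heated in aliquots for 3 min across 48°C-58°C. After pooling, adjustment to 0.5% NP-40 at 4°C and centrifugation at 21,000xg for 90 min, supernatant protein was measured by TMTpro 16plex LC-MS/MS with channel sums equalised.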
# [2] = compound: CC1=C(SC2=C1C(=N[C@H](C3=NN=C(N32)C)CC(=O)N)C4=CC=C(C=C4)Cl)C
# Summary of the method: as §1
# [3] = compound: CC1=C2C(=CC=C1)N=C(N(C2=O)C3=CC=CC=C3C)CN4C=NC5=C(N=CN=C54)N
# Summary of the method: as §1
# [4] = compound: Cc1sc2c(c1C)C(c1ccc(Cl)cc1)=N[C@@H](CC(=O)OC(C)(C)C)c1nnc(C)n1-2
# Summary of the method: as §1
# [5] = compound: c1ccc([C@@H]2C[C@H]2NC2CCNCC2)cc1
# Summary of the method: as §1
Target,log2 fold change [1],log2 fold change [2],log2 fold change [3],log2 fold change [4],log2 fold change [5]
GSK3A (UniProt P49840),inactive: -0.041,inactive: 0.03,inactive: -0.059,inactive: 0.036,inactive: -0.044
GSE1 (UniProt Q14687),inactive: -0.031,inactive: 0.005,inactive: -0.002,inactive: -0.015,inactive: 0.184
GTSE1 (UniProt Q9NYZ3),inactive: 0.136,inactive: -0.008,inactive: 0.031,inactive: -0.025,inactive: -0.073
HBD (UniProt P02042),inactive: 0.006,inactive: -0.046,inactive: -0.014,inactive: 0.001,inactive: -0.033
GTF2E1 (UniProt P29083),inactive: 0.029,inactive: 0.012,inactive: -0.006,inactive: -0.022,inactive: -0.078
HAUS6 (UniProt Q7Z4H7),inactive: 0,inactive: -0.012,inactive: 0.021,inactive: 0.005,inactive: 0.041
GSPT1 isoform 3 (UniProt P15170),inactive: 0.004,inactive: 0.014,inactive: -0.001,inactive: 0.006,inactive: 0.019
GPX4 (UniProt P36969),inactive: 0.018,inactive: -0.01,inactive: 0.036,inactive: -0.03,inactive: 0.048
GTF2H3 (UniProt Q13889),inactive: -0.016,inactive: 0.04,inactive: 0.032,inactive: 0.002,inactive: -0.02
GRSF1 (UniProt Q12849),inactive: 0.029,inactive: 0.014,inactive: 0.007,inactive: -0.002,inactive: -0.014
H2AZ1 (UniProt P0C0S5),inactive: 0.003,inactive: -0.036,inactive: 0.001,inactive: 0.173,inactive: 0.051
HDDC3 (UniProt Q8N4P3),inactive: -0.024,inactive: -0.017,inactive: -0.055,inactive: -0.089,inactive: 0.037
H1-2 (UniProt P16403),inactive: -0.004,inactive: -0.002,inactive: -0.028,inactive: -0.063,inactive: -0.058
HAUS3 (UniProt Q68CZ6),inactive: -0.035,inactive: 0.023,inactive: 0.051,inactive: -0.032,inactive: 0.064
HACL1 (UniProt Q9UJ83),inactive: 0.02,inactive: 0.008,inactive: -0.025,inactive: -0.042,inactive: -0.017
HACE1 (UniProt Q8IYU2),inactive: -0.03,inactive: 0.08,inactive: 0.07,inactive: -0.115,inactive: -0.377
GTPBP2 (UniProt Q9BX10),inactive: 0.019,inactive: 0.021,inactive: 0.025,inactive: 0.049,inactive: 0.034
HBG2 (UniProt P69892),inactive: 0.024,inactive: -0.08,inactive: 0.002,inactive: -0.001,inactive: 0.016
GRN (UniProt P28799),–,–,–,inactive: 0.11,inactive: 0.075

# Quoted from the listing:
# log2 fold change [3] with GTPBP2 (UniProt Q9BX10) reads inactive: 0.025
# log2 fold change [2] with GRSF1 (UniProt Q12849) reads inactive: 0.014

# The listing continues.

Target,log2 fold change [1],log2 fold change [2],log2 fold change [3],log2 fold change [4],log2 fold change [5]
HAL (UniProt P42357),–,–,–,inactive: 0.033,inactive: 0.011
GSN (UniProt P06396),inactive: 0.003,inactive: 0.014,inactive: 0.017,inactive: -0.011,inactive: -0.03
GRPEL1 (UniProt Q9HAV7),inactive: -0.009,inactive: 0.014,inactive: 0.015,inactive: -0.015,inactive: -0.011
GPSM3 (UniProt Q9Y4H4),–,–,–,inactive: -0.03,inactive: -0.199
HAGH (UniProt Q16775),inactive: -0.007,inactive: 0.001,inactive: 0.041,inactive: 0.009,inactive: -0.041
GTF2H2 (UniProt Q13888),inactive: 0.018,inactive: 0.003,inactive: 0.073,inactive: -0.047,inactive: -0.075
GUCD1 isoform 3 (UniProt Q96NT3),–,–,–,inactive: 0.05,–
GSPT1 isoform 2 (UniProt P15170),–,–,inactive: -0.217,–,–
H6PD (UniProt O95479),inactive: 0.092,inactive: 0.089,–,inactive: 0.035,inactive: 0.017
GRK5 (UniProt P34947),–,–,inactive: -0.063,–,–
HCFC1 (UniProt P51610),inactive: 0.042,inactive: -0.026,inactive: 0.126,–,inactive: -0.207
GTF3C6 (UniProt Q969F1),inactive: 0.227,inactive: -0.163,inactive: 0.04,inactive: -0.002,inactive: 0.032
HDAC10 (UniProt Q969S8),inactive: -0.076,inactive: 0.115,inactive: 0.21,inactive: 0.197,inactive: -0.055
HAGH isoform 2 (UniProt Q16775),–,–,–,inactive: 0.103,–
H1-5 (UniProt P16401),inactive: 0.013,inactive: -0.009,inactive: -0.014,inactive: 0.104,inactive: 0.013
GRM5 (UniProt P41594),inactive: -0.131,inactive: -0.022,–,inactive: 0.013,–
HAUS4 (UniProt Q9H6D7),inactive: -0.009,inactive: -0.043,inactive: 0.019,inactive: 0.019,inactive: 0.02
GREB1 (UniProt Q4ZG55),inactive: 0.072,inactive: 0.047,inactive: 0.154,–,inactive: -0.185
GTF2A1 (UniProt P52655),inactive: 0.025,inactive: -0.033,inactive: -0.01,inactive: -0.057,inactive: 0.202

Target,log2 fold change [1],log2 fold change [2],log2 fold change [3],log2 fold change [4],log2 fold change [5]
"HBZ, A0A494C057",inactive: -0.016,inactive: 0.067,inactive: 0.002,–,inactive: 0.146
GTF2H2C (UniProt Q6P1K8),–,–,–,inactive: -0.025,–
H3-2 (UniProt Q5TEC6),inactive: 0.095,inactive: -0.134,–,inactive: 0.148,–
H4C1 (UniProt P62805),inactive: -0.063,inactive: 0.037,inactive: -0.031,active: 0.664,inactive: 0.125
GSDME (UniProt O60443),inactive: 0.028,inactive: -0.024,–,inactive: 0.024,inactive: 0.066
GTPBP6 (UniProt O43824),–,–,inactive: 0.385,inactive: -0.439,inactive: 0.118
HDAC8 (UniProt Q9BY41),inactive: 0.076,inactive: 0.273,inactive: 0.046,inactive: -0.02,inactive: 0.08
GRAMD4 (UniProt Q6IC98),–,–,inactive: 0.106,inactive: -0.067,–
GRK6 isoform 2 (UniProt P43250),inactive: 0.086,inactive: -0.034,inactive: -0.135,inactive: 0.084,inactive: -0.018
GRPEL2 (UniProt Q8TAA5),inactive: -0.006,inactive: 0.155,inactive: -0.001,inactive: -0.033,inactive: -0.013
GSDMD (UniProt P57764),–,–,inactive: -0.156,–,–
H3-3A (UniProt P84243),inactive: 0.059,inactive: 0.016,inactive: 0.024,–,inactive: -0.004
HAUS5 (UniProt O94927),inactive: 0.043,inactive: 0.02,inactive: 0.003,inactive: -0.055,inactive: 0.089
GPT2 (UniProt Q8TD30),–,–,inactive: -0.039,inactive: 0.079,–
H1-0 (UniProt P07305),–,–,–,inactive: 0.114,–
"GYPA, A0A2R8Y7F9",inactive: -0.088,inactive: -0.151,–,–,inactive: -0.163
HBD (UniProt E9PEW8),–,–,inactive: -0.012,–,inactive: 0.079
GTF2F2 (UniProt P13984),inactive: -0.003,inactive: 0.028,inactive: 0.015,inactive: 0.026,inactive: -0.012
